# No constants are given. Whether binding was seen depends on the method and setting. Binding seen in cells or lysates may run through a third protein.
# B1: SOD2 (in MAECs, co-IP) (enzyme, UniProt P04179 25-222)
# chain: KHSLPDLPYDYGALEPHINAQIMQLHHSKHHAAYVNNLNVTEEKYQEALAKGDVTAQIALQPALKFNGGGHINHSIFWTNLSPNGGGEPKGELLEAIKRDFGSFDKFKEKLTAASVGVQGSGWGWLGFNKERGHLQIAACPNQDPLQGTTGLIPLLGIDVWEHAYYLQYKNVRPDYLKAIWNVINWENVTERYMACKK
# Target: LONP1 mutant (named LONP1-MUT)
# Assay: co-IP; MAEC whole-cell lysate, mouse anti-Flag antibody (20 ug/ml) or normal mouse IgG, protein A/G magnetic beads, 4 °C, Western blot
binder,measurement,value
B1,binding,no binding

# Reference: publication PMC12681905
